Measured values: US20260276657A1
These are yes or no findings as the source states them, for the method shown. Some entries that bind do so weakly or less than the wild type.

Chains of the proteins cited; added tags and fusions are not shown. Lines headed by an entry give the natural chain unless they say otherwise; changes in a name come on top. A line that says so, or that is headed by a name, gives the form on record, which may keep a tag or linker.
oligomeric variants of tau in human FTD sera (P10636, form named): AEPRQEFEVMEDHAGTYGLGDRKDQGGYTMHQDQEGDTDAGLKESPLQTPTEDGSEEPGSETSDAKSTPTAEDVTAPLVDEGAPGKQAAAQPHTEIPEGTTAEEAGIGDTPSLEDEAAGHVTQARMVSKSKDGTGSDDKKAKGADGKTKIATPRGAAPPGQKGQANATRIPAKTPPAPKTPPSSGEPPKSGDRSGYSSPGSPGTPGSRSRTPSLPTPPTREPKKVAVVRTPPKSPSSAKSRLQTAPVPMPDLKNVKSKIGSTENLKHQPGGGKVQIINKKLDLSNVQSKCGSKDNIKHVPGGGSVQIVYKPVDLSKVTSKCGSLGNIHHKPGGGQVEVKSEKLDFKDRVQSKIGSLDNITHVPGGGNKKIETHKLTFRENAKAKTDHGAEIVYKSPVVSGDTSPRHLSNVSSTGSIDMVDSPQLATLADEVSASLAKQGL

Assays:
[1] = biological target: oligomeric variants of beta-amyloid in human FTD sera (human) (UniProt P05067); assay: phage capture ELISA on FTD sera; scFv as capture, beta-amyloid detection phage
[2] = biological target: oligomeric variants of tau in human FTD sera (human) (UniProt P10636); assay: phage capture ELISA on FTD sera; scFv as capture, tau detection phage

B1: A4 scFv (scFv)
scFv: MAEVQLLESGGGLVQPGGSLRLSCAASGFTFSSYPMSWVRQAPGKGLEWVSAIQHTGAPTTYADSVKGRFTISRDNSKNTLYLQMNSLRAEDTAVYYCAKAFPPFDYWGQGTLVTVSSGGGGSGGGGSGGGGSTDIQMTQSPSSLSASVGDRVTITCRASQSISSYLNWYQQKPGKAPKLLIYSASSLQSGVPSRFSGSGSGTDFTLTISSLQPEDFATYYCQQRETGPKAFGQGTKVEIKRAAAHHHHHHGAAEQKLISEEDLNGAA
binding [1]: binds

B2: F9T scFv (scFv)
scFv: MAQVQLQESGGGVVQPGRSLRLSCAASGFTFSTSGMHWVRQAPGKGLEWVAFILHDGSDKYYADSVKGRFTISRDNSKNTLYLQMNSLRAEDTAIYYCAKSQRELLGAEYLQNWGQGTLVTVSSGGGGSGGGGSGGGGSQSALTQPASVSGSPGQSITISCTGTSSDVGGYKYVSWYQQHPGKAPKVMIYDVSNRPSGVSNRFSGSKSGNTASLTISGLQAEDEADYYCSSYTSSSTLVFGGGTKVTVLGAAAHHHHHHGAAEQKLISEEDLNGAA
binding [2]: binds
